Experimental data reported in PubChem BioAssay AID2685 (National Center for Advancing Translational Sciences (NCATS), 2010).
Out of some 320,000 compounds screened, about 2,100 (0.66%) were called active. The shares of active, inactive and inconclusive entries below differ from those in the screen. Calls come from the whole dose curve; as a rule, active = well fitted inhibition curve with a large enough effect in the signal ratio, with a control signal flat (not every such curve was filed as active); inconclusive = small, poorly fitted or top-dose-only effect, or effect the other way, or a change in a side signal; inactive = flat fitted curve, though single readings scatter; the % refers to the signal ratio. Potencies beside an inconclusive call are fits to weak or partial responses and may not hold up.

Assay: qHTS Assay for Lipid Storage Modulators in Drosophila S3 Cells
Details: BODIPY lipid droplet fluorescence, 18-24 h, cells fed with added oleic acid; lipid storage change, negative = inhibition: at 46.1 µM (top of the series) unless noted
Summary of the method: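 Drosophila S3 cells got compounds at several concentrations plus oleic acid (400 uM solution). Laser-scanning cytometry with 488 nm excitation read lipid droplets at 500-530 nm and cells at 575-640 nm. Percent activity was relative to 20 uM Triacsin C.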
% is set by controls: 0 for no effect and ±100 for the full control effect; potency is the fitted concentration of half-maximal effect.

Row | SMILES | lipid storage change, negative = inhibition | Potency
1 | O=C(O)c1ccc2c(=O)n3c(nc2c1)/C(=C/c1ccc(F)cc1)CC3 | inconclusive: 2.46% | 
2 | O=C(N/N=C/c1ccc(F)cc1)c1cc(-c2ccco2)nc2ccccc12 | inconclusive: -26.2% | 
3 | COc1ccc(Cl)cc1NC(=O)CSc1nc(NS(=O)(=O)c2ccc(C)cc2)cc(=O)[nH]1 |  | inconclusive: 0.146 µM [falling, full curve, poor fit]
4 | O=C(NCc1ccccn1)c1cn(CCc2ccccc2)nn1 | inconclusive: -21.4% | 
5 | Nc1nc2n(n1)C(c1cccc(Br)c1)CC(c1ccccc1)N2 (stereo unspecified) | inconclusive: 51.7% | 
6 | Cc1cc2c(cc1S(=O)(=O)N1CCCC1)n(C)c(=O)c(=O)n2C |  | inconclusive: 29.1 µM [falling, single point]
7 | O=C(Nc1cccc(C(F)(F)F)c1)c1cc(-c2ccc(F)cc2)on1 | inconclusive: 198% | 
8 | O=C(Cn1c2[n+](c3ccc(C(F)(F)F)cc31)CCCCC2)Nc1c(F)cccc1F | inconclusive: 37.3% | 
9 | COC(=O)Nc1cccn(Cc2c(Cl)cccc2Cl)c1=O | inconclusive: -11.2% | 
10 | COc1ccc(OC)c(/C=C2/Sc3ccccc3C2=O)c1 | inconclusive: -42.2% | 
11 | Cc1c(CCOC(=O)C23CC4CC(CC(C4)C2)C3)sc[n+]1CC#N |  | inconclusive: 2.31 µM [falling, partial curve]
12 | CCNc1nc(NC(C)C)nc(N(C#N)CCOc2ccc(Cl)cc2Cl)n1 |  | inconclusive: 1.46 µM [activator, full curve]
13 | COc1ccc(OC)c(NC(=O)/C=C/c2ccccc2[N+](=O)[O-])c1 |  | inconclusive: 18.4 µM [falling, single point]
14 | CC(C(=O)c1ccccc1)[n+]1cccc(C(N)=O)c1 (stereo unspecified) | inconclusive: -11.2% | 
15 | CCOc1ccc(OCc2ccc(C(=O)O)o2)cc1 | inconclusive: 7.59% | 
16 | CC(C)c1ncc(S(=O)(=O)c2ccc(C(F)(F)F)cn2)c(N)n1 |  | inconclusive: 29.1 µM [cytotoxic, single point]
17 | Cc1ccc(S(=O)(=O)NCCC(=O)Nc2cc(F)ccc2C)cc1C | inconclusive: -5.93% | 
18 | O=C(Cc1ccc(S(=O)(=O)N2CCOCC2)s1)NC1CCCCC1 |  | inconclusive: 29.1 µM [activator, single point]
19 | CCCC[C@H](CC(=O)c1ccccc1)[C@@H](OC(C)=O)C(=O)Oc1c(C(C)C)cccc1C(C)C | inconclusive: 16.5% | 
20 | OCc1c[nH]c2ccccc12 | inconclusive: 20.6% | 
21 | O=[N+]([O-])c1ccc(N/N=C\c2cccn2-c2ccccc2)nc1 |  | inconclusive: 18.4 µM [falling, single point]

Copied from above: nos. 14 to 15
Row | SMILES | lipid storage change, negative = inhibition | Potency
14 | CC(C(=O)c1ccccc1)[n+]1cccc(C(N)=O)c1 (stereo unspecified) | inconclusive: -11.2% | 
15 | CCOc1ccc(OCc2ccc(C(=O)O)o2)cc1 | inconclusive: 7.59% | 
